Out of some 320,000 compounds screened, about 2,100 (0.66%) were called active. This list was built around the results that the source calls inconclusive (neither active nor inactive); the mix of calls is not that of the screen. Calls come from the whole dose curve; as a rule, active = well fitted inhibition curve with a large enough effect in the signal ratio, with a control signal flat (not every such curve was filed as active); inconclusive = small, poorly fitted or top-dose-only effect, or effect the other way, or a change in a side signal; inactive = flat fitted curve, though single readings scatter; the % refers to the signal ratio. Potencies beside an inconclusive call are fits to weak or partial responses and may not hold up.
Test: qHTS Assay for Lipid Storage Modulators in Drosophila S3 Cells
Details: BODIPY lipid droplet fluorescence, 18-24 h, cells fed with added oleic acid; lipid storage change, negative = inhibition: at 46.1 µM (top of the series) unless noted
Method in brief: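 Drosophila S3 cells loaded with oleic acid (400 uM, as added) and compounds at several concentrations; lipid droplets imaged by 488-nm laser-scanning cytometry, 500–530 nm intensity and object ratio to cell channel. Percent activity normalized to 20 uM Triacsin C.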
% is set by controls: 0 for no effect and ±100 for the full control effect; potency is the fitted concentration of half-maximal effect.

SMILES	Potency	lipid storage change, negative = inhibition	outcome
C=CCNC(=O)NC(=O)COC(=O)/C(C#N)=C/c1ccc(OC)cc1	inconclusive: 0.231 µM [falling, full curve, poor fit]		
Cc1sc2nc(C3CC3)nc(N3CCN(C(=O)c4ccccc4F)CC3)c2c1C		inconclusive: 38.4%	
O=C(c1cc(-c2ccc(Br)cc2)nc2ccccc12)N1CCC1	inconclusive: 7.31 µM [activator, partial curve, poor fit]		
CCCCN(C(=O)c1ccc(COc2ccccc2)o1)c1c(N)n(CC(C)C)c(=O)[nH]c1=O		inconclusive: 3.79%	
O/N=C/c1ccccc1OCc1ccccc1F		inconclusive: 52.1%	
[N-]=C=C1C(=O)NC(=O)C([n+]2ccc(-c3ccncc3)cc2)C1c1ccccc1C(F)(F)F (stereo not drawn)		inconclusive: 33.1%	
Cc1ccc(C(=O)NCC(=O)N/N=C/c2sccc2C)cc1[N+](=O)[O-]		inconclusive: 1.25% [at 9.22 µM]	
C=CCn1c(O)c(N=NC(=O)C(O)c2ccccc2)c2ccccc21 (stereo not drawn)		inconclusive: 14.7%	
O=C(NCCCCNC(=O)c1cccs1)c1cccs1		inactive: -20.8%	
COc1ccc(NC(=O)CN2C(=O)NC3(CC(C)CC(C)(C)C3)C2=O)cc1S(=O)(=O)N1CCCCC1 (stereo not drawn)		inconclusive: 22.6%	
O=C(NC1CCCC1)C(c1ccccc1F)N(C(=O)c1csnn1)C1CC1 (stereo not drawn)		inconclusive: 13.7%	
FC(F)(F)c1cccc(Cc2noc(CN(Cc3ccccn3)CC3CCCO3)n2)c1 (stereo not drawn)		inconclusive: 26.3%	
Nc1ccc(Cc2ccc(N)c(O)c2)cc1O		inconclusive: 17%	
Cc1cc(N2CCCC2=O)cc(C)c1S(=O)(=O)Nc1c(C)nn(C)c1C		inconclusive: 16.7%	
Cc1cc(C)n(C(=O)c2cccc(S(=O)(=O)N3CCCC3)c2)n1		inconclusive: 12.5%	
N#C/C(=C/c1ccc(-c2cc(C(=O)O)cc(C(=O)O)c2)o1)c1nc2ccccc2s1		inconclusive: -9.12%	
Cc1ccc(OCCn2cc(/C=C(\C#N)C(=O)NCC3CCCO3)c3ccccc32)cc1C (stereo not drawn)		inconclusive: -69.1%	
CC(C)OC(=O)CSc1nc2c(cc1C#N)CCCCC2		inactive: -3.11%	
Cc1sc(-c2ccccn2)nc1OC(=O)c1ccc(Cl)cc1		inconclusive: -39.7%	
CCN(CC)C(=O)C1CCCN(Cc2cccc(F)c2)C1 (stereo not drawn)		inconclusive: -36.7%	
Cn1c(/C=C/c2ccc(Cl)cc2)c([N+](=O)[O-])c(=O)n(C)c1=O	inconclusive: 3.26 µM [falling, full curve]		
O=C(Oc1ccc(F)c(F)c1)c1ccc2c(=O)n3c(nc2c1)CCC3	inconclusive: 23.1 µM [falling, single point]		
COCCn1c(SCC(=O)Nc2ccc3c(c2)OCCO3)nnc1C(C)C		inactive: 14%	
CCn1cc(C2CC(=O)NC2=O)c2ccccc21 (stereo not drawn)		inactive: 15.1%	
Cc1ccc(C(=O)NCCNC(=O)c2cccnc2)cc1		inconclusive: 6.22%	
O=C(CCC(NC(=O)OCc1ccccc1)C(=O)O)OCc1ccccc1 (stereo not drawn)		inconclusive: 32.8%	

A stretch taken from the entries so far, as a working copy:
SMILES	Potency	lipid storage change, negative = inhibition	outcome
CCCCN(C(=O)c1ccc(COc2ccccc2)o1)c1c(N)n(CC(C)C)c(=O)[nH]c1=O		inconclusive: 3.79%	
O/N=C/c1ccccc1OCc1ccccc1F		inconclusive: 52.1%	

Remaining list, next part.

SMILES	Potency	lipid storage change, negative = inhibition	outcome
CC12CC(c3ccccc3O1)N(C(=O)c1ccco1)C(=S)N2c1ccccc1 (stereo not drawn)		inconclusive: -12.9%	
O=C(Nc1ccc(CN2CCOCC2)cc1)c1ccc(Br)o1		inconclusive: 6.39%	
Cn1c(CC(=O)NNC(=O)c2ccc(F)cc2F)nc2ccccc21	inconclusive: 4.61 µM [activator, single point]		
O=C(/C=C/c1ccco1)NCC(=O)N/N=C/c1ccc(Cl)cc1		inconclusive: 32%	
COc1cccc(C2NC(=O)NC(C)=C2C(=O)Nc2cccc(C)c2C)c1 (stereo not drawn)		inconclusive: 22.1%	
O=C(CN1CCCCCC1)Nc1ccc(F)c(F)c1		inconclusive: 13.5%	
Cc1ccc(C(=O)NC2CCS(=O)(=O)C2)cc1S(=O)(=O)N1CCCC1 (stereo not drawn)		inconclusive: -3.14%	
CCOC(=O)Cc1cc(=O)n2[nH]c(C)c(-c3ccc(OC)cc3)c2n1		inconclusive: 76.9%	
CC(C)(C)NC(=O)Cn1nnc(-c2cccs2)n1	inconclusive: 32.6 µM [falling, partial curve]		
CN1C(=O)C(=O)N(CC(=O)Nc2ccccc2OC(F)F)C1=O		inconclusive: -10.7%	
O=C(COc1ccc([N+](=O)[O-])cc1)NCc1cccnc1		inconclusive: 18.5%	
COc1ccc(-c2csc(NC(=O)C3CCCO3)n2)cc1 (stereo not drawn)		inconclusive: 20.4%	
O=C(O)c1ccc(NC(=O)c2cn(-c3ccccc3)nc2-c2ccc(F)cc2)cc1	inconclusive: 6.51 µM [falling, single point]		
CC(C)CN1C(=O)c2ccc(NC(=O)c3ccco3)cc2C1=O		inconclusive: -6.68%	
COc1ccc(N2CCN(C(=O)CNC(=O)c3cccs3)CC2)cc1		inconclusive: 140%	
Cc1nn(CC(=O)NCCCc2ccccc2)c(=O)c2cc3occc3n12		inconclusive: 26.2%	
O=C(Nc1cccc(C(=O)Nc2ccc(F)cc2F)c1)c1ccccc1		inconclusive: -3.08%	
Cc1ccc(S(=O)(=O)N2CCOC2CNC(=O)C(=O)NCCc2ccccc2)cc1 (stereo not drawn)		inconclusive: 9.05%	
Cc1ccccc1-n1c(SCC(=O)Nc2c(C)cccc2C)nc(O)cc1=O	inconclusive: 20.6 µM [falling, single point]		
COc1ccc(CCn2c(N)c(C(=O)NCc3ccco3)c3nc4ccccc4nc32)cc1		inconclusive: -8%	
CCCC(=O)Nc1nn(C)c2nc3cc(C)ccc3cc12		inconclusive: 24.1%	
Oc1cccc(Nc2c3ccccc3nc3ccccc23)c1	inconclusive: 29.1 µM [falling, single point]		
Cc1cc(C)n(-c2nc3c(c(=O)[nH]c(=O)n3C)n2CCc2ccccc2)n1	inconclusive: 3.26 µM [activator, full curve]		
Cc1ccccc1CCN(CC(=O)NCc1ccc(F)cc1)C(=O)c1csnn1		inconclusive: 1.92%	
O=C(Nc1ccc(F)cc1)Nc1ccccc1F		inconclusive: 80%	
Cc1cnc(C(=O)Nc2cccc3cccnc23)cn1	inconclusive: 0.731 µM [falling, single point]		

Retrieved one by one from the entries so far:
SMILES	Potency	lipid storage change, negative = inhibition	outcome
Cc1cnc(C(=O)Nc2cccc3cccnc23)cn1	inconclusive: 0.731 µM [falling, single point]		
COc1ccc(CCn2c(N)c(C(=O)NCc3ccco3)c3nc4ccccc4nc32)cc1		inconclusive: -8%	
COc1ccc(-c2csc(NC(=O)C3CCCO3)n2)cc1 (stereo not drawn)		inconclusive: 20.4%	

Further records

SMILES	Potency	lipid storage change, negative = inhibition	outcome
COCCn1c(C)cc(C(=O)COC(=O)/C=C/c2cccc(OC)c2)c1C		inconclusive: -0.194%	
COc1ccc(N2C(=O)/C(=C\c3ccco3)N=C2SCC(=O)N(C(C)C)C(C)C)cc1Cl		inconclusive: -14.6%	
CC(C)(C)c1ccc(OCCSc2nc3ccccc3n2CC(=O)O)cc1		inconclusive: 49.6%	
C[n+]1cnc(-c2ccccc2)cc1-c1ccccc1		inconclusive: 7.21%	
CCCCN1C(=O)C(=O)NC[C@@H]1C(C)O (stereo partly drawn)		inconclusive: 4.1%	
CCc1nnc(N/N=C/c2ccc(N3CCC(C)CC3)c([N+](=O)[O-])c2)n1N	inconclusive: 29.1 µM [falling, single point]		
CCOC(=O)c1c(NC(=O)COC(=O)c2cnccn2)sc(C(=O)NC)c1C		inconclusive: 39.3%	
O=C(CCN1C(=O)/C(=C/c2ccccc2F)SC1=S)NC1C=CS(=O)(=O)C1 (stereo not drawn)			inactive [at 46.1 µM]
COc1ccc(C(=O)N/N=C/c2ccc(OC)c(CN3CCN(c4ccc(F)cc4)CC3)c2)cc1		inconclusive: 2.28%	
Cc1ccc(CC(=O)Nc2cccc([N+](=O)[O-])c2)cc1	inconclusive: 0.651 µM [activator, single point]		
CCOC(=O)/C(=N/Nc1ccccc1)Sc1nnnn1-c1ccc(C)cc1	inconclusive: 18.4 µM [activator, partial curve]		
CCN(CC)c1ccc(/C=N/NC(=O)c2ccc(Br)o2)cc1		inconclusive: 24.6%	
O=C(CN(CCc1ccccc1)C(=O)c1csnn1)NCc1ccc(F)cc1		inconclusive: 92.8%	
CCOC(=O)C1CCN(C(=O)c2ccccc2NS(=O)(=O)c2ccc(F)cc2)CC1		inconclusive: 23.2%	
C[C@@H](C(=O)NCc1ccccn1)[C@@H]1C[C@@]1(C)[C@@H](NC(=O)OCc1ccccc1)c1ccccc1	inconclusive: 14.6 µM [activator, partial curve]		
Cc1ccc(CNC(=O)[C@H](C)N2C(=O)N3CCc4c([nH]c5ccccc45)[C@@]3(C)C2=O)cc1		inconclusive: -77.5%	
Cc1ccc(C)c(OCC(=O)Nc2ccc3c(c2)OCO3)c1C		inconclusive: 168%	
CCCCn1c(N)c(N(Cc2ccccc2OC)C(=O)CCC(C)C)c(=O)[nH]c1=O	inconclusive: 18.4 µM [activator, partial curve]		
Cc1cc(C)c(C#N)c(SCc2nnc(-c3ccccc3)o2)n1	inconclusive: 3.66 µM [activator, partial curve, poor fit]		
Cc1ccsc1/C=C(\C(=O)c1ccc(OC(C)C)cc1)c1nc2ccccc2o1		inconclusive: 35.2%	
O=C1C2CCCCC2C(=O)N1c1cccc(OS(=O)(=O)c2ccccc2)c1 (stereo not drawn)		inconclusive: -2.57%	
Cc1cc(Cl)c2oc(C(=O)N3CCN(C(=O)c4ccco4)CC3)c(C)c2c1	inconclusive: 29.1 µM [falling, single point]		
CC1CN(C(=O)c2cc(Br)c(Br)s2)CC(C)O1 (stereo not drawn)	inconclusive: 0.0058 µM [activator, full curve, poor fit]		
CCOCCn1c(CN2CCC(Cc3ccccc3)CC2)nc2c1c(=O)n(C)c(=O)n2C		inconclusive: 15%	
Cc1cc(-c2ccc(/C=N/n3cnnc3)o2)c(C)c([N+](=O)[O-])c1	inconclusive: 8.2 µM [falling, partial curve]		
Cc1ccc(N(CC(=O)Nc2ccc(C)cn2)S(=O)(=O)c2c(C)nn(C)c2C)cc1	inconclusive: 2.06 µM [activator, partial curve]		

— PubChem BioAssay AID2685 (National Center for Advancing Translational Sciences (NCATS), 2010)
